Reference: US5871960, “Nucleic acids encoding CR5 polypeptide, vector and transformed cell thereof, and expression thereof” (Trustees of Dartmouth College)
Weaker means in comparison with the reference protein, sequence or condition of that experiment.

The chains behind the UniProt entries cited, without tags or fusion partners. A line that says so, or that is headed by a name, gives the form on record, which may keep a tag or linker.
UniProt O14503, other isoform, or with tags, fused parts or gaps: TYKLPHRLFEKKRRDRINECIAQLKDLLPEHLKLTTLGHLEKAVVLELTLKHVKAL

Legend:
[1] = target: CR8 bHLH domain (BHLHE40/DEC1) (human) (UniProt O14503); assay: EMSA; settings: same buffer; purified recombinant protein; label: 32P 5' end
[2] = target: CR8 bHLH domain (BHLHE40/DEC1) (human) (UniProt O14503); assay: competition with a labelled probe; settings: unlabeled competitor against labeled Class B probe; purified recombinant protein; label: 32P 5' end

Sequence: GATCACGCCACGAGCCACAAGGATTG / GATCCAATCCTTGTGGCTCGTGGCGT [N-box probe (E(spl) m8 promoter)]
- binding result [1]: binds more weakly

Sequence: GATCGGCAGCCGGCACGCGACAGGGCC / GATCGGCCCTGTCGCGTGCCGGCTGCC [Class C probe (AS-C T5 promoter)]
- binding result [2]: binds more weakly
